Assay results taken from article PMC8155215, “The splicing factor XAB2 interacts with ERCC1-XPF and XPG for R-loop processing”.

T1: biotin-tagged XAB2 (XPA-binding protein 2) from aviXab2+/+;birA knock-in mice (mouse) (UniProt Q9DCD2)
T1 sequence (chain, biotin on the 15aa Avitag (added in vivo by the BirA ligase)): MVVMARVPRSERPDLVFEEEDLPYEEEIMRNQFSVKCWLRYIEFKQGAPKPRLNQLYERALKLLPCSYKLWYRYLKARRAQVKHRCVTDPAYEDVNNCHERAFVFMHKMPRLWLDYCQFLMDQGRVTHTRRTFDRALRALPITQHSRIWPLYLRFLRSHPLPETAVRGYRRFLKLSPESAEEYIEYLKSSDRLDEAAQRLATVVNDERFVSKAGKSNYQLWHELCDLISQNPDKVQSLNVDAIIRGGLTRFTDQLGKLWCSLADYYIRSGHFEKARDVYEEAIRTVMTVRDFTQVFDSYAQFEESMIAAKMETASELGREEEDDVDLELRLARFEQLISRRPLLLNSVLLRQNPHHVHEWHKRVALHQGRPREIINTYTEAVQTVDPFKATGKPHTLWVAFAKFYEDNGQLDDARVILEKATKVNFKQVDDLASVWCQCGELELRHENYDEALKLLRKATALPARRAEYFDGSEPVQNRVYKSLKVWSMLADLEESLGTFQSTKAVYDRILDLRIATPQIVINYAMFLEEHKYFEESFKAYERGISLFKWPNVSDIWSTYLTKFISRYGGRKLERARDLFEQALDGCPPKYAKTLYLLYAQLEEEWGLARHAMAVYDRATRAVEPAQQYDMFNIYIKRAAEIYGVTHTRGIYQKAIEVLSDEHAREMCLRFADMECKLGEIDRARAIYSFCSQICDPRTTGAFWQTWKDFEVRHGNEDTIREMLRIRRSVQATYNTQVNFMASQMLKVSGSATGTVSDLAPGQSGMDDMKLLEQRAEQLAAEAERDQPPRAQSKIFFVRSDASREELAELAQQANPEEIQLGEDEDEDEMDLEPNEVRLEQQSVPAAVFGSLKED


Target: T1, biotin-tagged XAB2 (XPA-binding protein 2) from aviXab2+/+;birA knock-in mice (mouse)
Experiment: affinity purification with mass spectrometry; bXAB2 captured on M-280 streptavidin beads from high-salt nuclear extracts of P15 bXAB2 livers treated with benzonase and RNase A; BirA livers as control; three biological replicates, nLC-MS/MS

Row | binding | Binder
1 | binds | NUP153 (protein, UniProt E9Q3G8 1-1462) MASEAGGIGGGGGGGKIRTRRCHQGPVKPYQQGRPQHQGILSRVTESVKNIVPGWLQRYFNKSENACSCSPDADEVPPWPENREDEHAIYADENTNTDDGRITPDPAGSNTEEPSTTSTASNYPDVLTRPSLHRSHLNFSVLESPALHCQPSTSSAFPIGSSGFSLVKEIKDSTSQHDDDNISTTSGFSSRASEKDIAVSKNTSLPPLWSPEAERSHSLSQHTAISSKKPAFNLSAFGTLSTSLGNSSILKTSQLGDSPFYPGKTTYGGAAAAVRQNKVRSTPYQAPVRRQMKAKQLNAQSYGVTSSTARRILQSLEKMSSPLADAKRIPSAVSSPLNSPLDRSGIDNTVFQAKKEKVDSQYPPVQRLMTPKPVSIATNRTVYFKPSLTPSGDLRKTNQRIDKKNSTVDEKSISRQNREQESGFSYPNFSIPAANGLSSGVGGGGGKMRRERTHFVAPKPPENEEVEAPLLPQISLPISSSSLPTFSFSSPVTSASPSPVSSSQPLPNKVQMTSLGSTGSPVFTFSSPIVKSTQAAVLPPASIGFTFSVPLAKTEFSGSNSSSETVLSSSAQDITAVNSSSYKKRSAPCEDPFTPAKILREGSVLDILKTPGFASPKVDSPALQPTTTSSIVYTRPAISTFSSSGIEYGESLKAGSSWQCDTCLLQNKVTDNKCIACQAAKLPLKETAKQTGTGTPSKSDKPASTSGTGFGDKFKPAIGTWDCDTCLVQNKPEAVKCVACETPKPGTGVKRALTLTVASESPVTASSSTTVTTGTLGFGDKFKRPVGSWECPVCCVCNKAEDNRCVSCTSEKPGLVSASSSSPAPVSLSSGGCLGLDKFKKPEGSWDCEVCLVQNKADSAKCIACESAKPGTKSEFKGFGTSSSLNPAPSAFKFGIPSSSSGLSQTLTSTGNFKFGDQGGFKLGTSSDSGSTNTMNTNFKFSKPTGDFKFGVLSDSKPEEVKNDNKNDNFQFGSSSGLTNPASSAPFQFGVSTLGQQEKKEELPKSSPAGFSFGAGVNNPPNAAIDTTATSENKSGFNFGTLDTKSVSVTPFTYKTTEAKKEDAPATKGGFTFGKVGSSSLPSSSMFVLGRTEEKQQEPVTSTSLVFGKKADSEEPKCQPVFSFGNSEQTKDESSKPTFSFSVAKPSGKESEQLAKATFAFGNQTNTTTDQGAAKPVFSFLNSSSSSSSAPATSSSGGIFGSSTSSSNPPVAAFVFGQASNPVSSSAFGNAAESSTSQSLLFPQESEPATTSSTAPAASPFVFGTGASSNSVSSGFTFGATTTSSSSGSSFVFGTGHSAPSASPAFGANQTPTFGQSQGASQPNPPSFGSISSSTALFSAGSQPVPPPIFGTVSSSSQPPVFGQQPSQSAFGSGTANASSVFQFGSSTTNFNFTNNNPSGVFTFGASPSTPAASAQPSGSGVFSFSQSPASFTVGSNGKNMFSSSGTSVSGRKIKTAVRRKK
2 | binds | NUP160 (protein, UniProt Q9Z0W3 1-1402) MAAAGSLERSFVELSGAERERPRHFREFTVCDIGTASAAFGTVKYSESAGGFYYVESGKLFSITRNRFIHWKTSGDTLELVEESLDLNLLNNAVRLKFQNYNILPGGVHVSETQNHVIILILTNQTVHRLILPHPSRMYRSELVTESQMQSIFTDIGKVDFRDPCNSQLIPSVPGLSPGSTTSAAWLSSDGEALFALPSASGGIFVLKLPPYDVPGIASVVELKQSSVMQRLLTGWMPTAIRGDHGPSDRALSLAVHCVEHDAFIFALCQDHKLRMWSYKDQMCLMVADMLEYVPVNKDLRLTAGTGHKLRLAYSPSMGLYLGIYMHAPKRGQFCVFQLVSTENNRYSLDHISSLFTSQETLVDFALTSTDIWALWHDAENQTIVKYINFEHNVAGQWNPVFMQPLPEEEIVIRDDQDPREMYLRSLFTPGHFINAALCKALQIFCRGTERNLDLSWNELKKEITLAVENELQGSVTEYEFSQDEFRTLQQEFWCKFYACVLQYQEALSHPLALHLNPVTNMVCLLKKGYLSFLVPSSLVDHLYLLPDEHLLTEDETTISDDADVARDVLCLIKCLRMIGESVTMDMAVLMETSCYNLQSPEKAAEHILEDLITIDVENVMEDICSKLQEIRNPVHAIGLLIREMDYETEVEMEKGFDPAQPLNVRMNLSQLYGSSTAGYIVCRGVYKIASTRFLICRDLLILQQLLTRLGDAVILGAGQLFQAQQDLLHRTAPLLLSYYLIKWASQCLATDVPVDTLESNLQHLSVLELTDSGALMANKLVSSPQTIMELFFQEVARKQIISHLFSQPKAPLSQTGLNWPEMITAVTGYLLQLLWPSNPGCLFLECLMGNCQYVQLQDYIQLLHPWCQVNVGSCRFMLGRCYLVTGEVQKALECFCQAASEVGKEEFLDRLIRSEDGEIVSTPKLQYYDKVLRLLDVVGLPELVIQLATSAITEAGDDWKSQATLRTCIFKHHLDLGHNSQAYEALTQIPDSSRQLDCLRQLVVVLCERSQLQDLVEFPYVNLHNEVVGIIESRARAVDLMTHNYYELLYAFHIYRHNYRKAGTVMFEYGMRLGREVRTLRGLEKQGNCYLAAINCLRLIRPEYAWIVQPASGAVSDRPGASPKRNHDGECTAAPTNRQIEILELEDLEKEYSLARIRLTLARHDPSVIAIAGSSSAKEMSALLVQAGLFDTAISLCQTFTLPLTPVFEGLAFKCIKLQFGGEAAQGEAWSWLATNQLSSVITTKESSATDEAWRLLSTYLERYKVQNNLYHHCVINKLLSHGVPLPNWLINSYKKVDAAELLRLYLNYDLLEEAVDLVSEYVDAVLGKGHQYFGIEFPLSATAPMVWLPYSSIDQLLQALGENSANSHNIILSQKILDKLEDYQQKVDKATRDLLYRRDL

Results are given in words; binding and its absence hold for the method and conditions named. Binding seen in cells or lysates may run through a third protein. Here binding means that the protein was enriched with, or labelled near, the bait; the list need not be complete. Where a sequence is shown, tags or fusion partners need not be part of it.
